In this data set the test system is Hsp90 complexes in K562 cell extract. The experiment in a line: Nano-LC-MS/MS of PU-beads pull-downs. The data set is classed as binding. The following applies: for Matched Peptides by Fraction JA05: Run1, gel size cut 60-80; for Matched Peptides by Fraction JA12: Run2, gel size cut 60-80; for MAXIMUM matched peptides: maximum over fractions JA01-JA14; for Total fmol: protein isolated in PU-beads pull-downs, Waters Xevo QTof MS; for Matched Peptides by Fraction JA06: Run1, gel size cut 40-60; for Matched Peptides by Fraction JA13: Run2, gel size cut 40-60. Here is the method:
Protein cargo isolated from cell lysate with PU-beads or control-beads was subjected to proteomic analysis by nano liquid chromatography coupled to tandem mass spectrometry (nano LC-MS/MS). Initial protein identification was performed using the Mascot search engine, and was further evaluated using Scaffold Proteome Software (Tables 5a-d).
Lysates prepared as mentioned above were first pre-cleaned by incubation with control beads overnight at 4° C. […] Beads were washed with lysis buffer, proteins eluted by boiling in 2% SDS, separated on a denaturing gel and Coomassie stained according to manufacturer's procedure (Biorad). […] Analyses of the batch purified pools were done using a QSTAR-Elite hybrid quadrupole time-of-flight mass spectrometer (QTof MS) (AB/MDS Sciex), equipped with a nano spray ion source. Peptide mixtures (in 20 μL) are loaded onto a trapping guard column (0.3×5-mm PepMap C18 100 cartridge from LC Packings) using an Eksigent nano MDLC system (Eksigent Technologies, Inc) at a flow rate of 20 μL/min. […] Electrospray ionization (ESI) needle voltage was set at about 1800 V. The mass analyzer is operated in automatic, data-dependent MS/MS acquisition mode, with the threshold set to 10 counts per second of doubly or triply charged precursor ions selected for fragmentation scans. Survey scans of 0.25 sec are recorded from 400 to 1800 amu; up to 3 MS/MS scans are then collected sequentially for the selected precursor ions, recording from 100 to 1800 amu. The collision energy is automatically adjusted in accordance with the m/z value of the precursor ions selected for MS/MS. Selected precursor ions are excluded from repeated selection for 60 sec after the end of the corresponding fragmentation duty cycle. […] One missed tryptic cleavage site was allowed, precursor ion mass tolerance=0.4 Da fragment ion mass tolerance=0.4 Da, protein modifications were allowed for Met-oxide, Cys-acrylamide and N-terminal acetylation. MudPit scoring was typically applied with ‘require bold red’ activated, and using significance threshold score p<0.05. Unique peptide counts (or ‘spectral counts’) and percent sequence coverages for all identified proteins were exported to Scaffold Proteome Software (version 2_06_01, www.proteomesoftware.com) for further bioinformatic analysis (Table 5a). Using output from Mascot, Scaffold validates, organizes, and interprets mass spectrometry data, allowing more easily to manage large amounts of data, to compare samples, and to search for protein modifications.

B1: 60 kDa heat shock protein; Hsp60 (protein, UniProt P10809 27-573, looked up)
60 kDa heat shock protein, …: AKDVKFGADARALMLQGVDLLADAVAVTMGPKGRTVIIEQSWGSPKVTKDGVTVAKSIDLKDKYKNIGAKLVQDVANNTNEEAGDGTTTATVLARSIAKEGFEKISKGANPVEIRRGVMLAVDAVIAELKKQSKPVTTPEEIAQVATISANGDKEIGNIISDAMKKVGRKGVITVKDGKTLNDELEIIEGMKFDRGYISPYFINTSKGQKCEFQDAYVLLSEKKISSIQSIVPALEIANAHRKPLVIIAEDVDGEALSTLVLNRLKVGLQVVAVKAPGFGDNRKNQLKDMAIATGGAVFGEEGLTLNLEDVQPHDLGKVGEVIVTKDDAMLLKGKGDKAQIEKRIQEIIEQLDVTTSEYEKEKLNERLAKLSDGVAVLKVGGTSDVEVNEKKDRVTDALNATRAAVEEGIVLGGGCALLRCIPALDSLTPANEDQKIGIEIIKRTLKIPAMTIAKNAGVEGSLIVEKIMQSSSEVGYDAMAGDFVNMVEKGIIDPTKVVRTALLDAAGVASLLTTAEVVVTEIPKEEKDPGMGAMGGMGGGMGGGMF
On to B1, for which the Total fmol came to 27.0126 fmol. In addition, for the setting “PU-beads pull-down”, the “Matched Peptides by Fraction JA05” value stood at 32, the “Matched Peptides by Fraction JA12” value was 28 and the MAXIMUM matched peptides came out at 32.

B2: Transforming growth factor-beta receptor-associated protein 1 (protein, UniProt Q8WUH2 1-860, looked up)
Transforming growth …: MMSIKAFTLVSAVERELLMGDKERVNIECVECCGRDLYVGTNDCFVYHFLLEERPVPAGPATFTATKQLQRHLGFKKPVNELRAASALNRLLVLCDNSISLVNMLNLEPVPSGARIKGAATFALNENPVSGDPFCVEVCIISVKRRTIQMFLVYEDRVQIVKEVSTAEQPLAVAVDGHFLCLALTTQYIIHNYSTGVSQDLFPYCSEERPPIVKRIGRQEFLLAGPGGLGMFATVAGISQRAPVHWSENVIGAAVSFPYVIALDDEFITVHSMLDQQQKQTLPFKEGHILQDFEGRVIVATSKGVYILVPLPLEKQIQDLLASRRVEEALVLAKGARRNIPKEKFQVMYRRILQQAGFIQFAQLQFLEAKELFRSGQLDVRELISLYPFLLPTSSSFTRSHPPLHEYADLNQLTQGDQEKMAKCKRFLMSYLNEVRSTEVANGYKEDIDTALLKLYAEADHDSLLDLLVTENFCLLTDSAAWLEKHKKYFALGLLYHYNNQDAAAVQLWVNIVNGDVQDSTRSDLYEYIVDFLTYCLDEELVWAYADWVLQKSEEVGVQVFTKRPLDEQQKNSFNPDDIINCLKKYPKALVKYLEHLVIDKRLQKEEYHTHLAVLYLEEVLLQRASASGKGAEATETQAKLRRLLQKSDLYRVHFLLERLQGAGLPMESAILHGKLGEHEKALHILVHELQDFAAAEDYCLWCSEGRDPPHRQQLFHTLLAIYLHAGPTAHELAVAAVDLLNRHATEFDAAQVLQMLPDTWSVQLLCPFLMGAMRDSIHARRTMQVALGLARSENLIYTYDKMKLKGSSIQLSDKKLCQICQNPFCEPVFVRYPNGGLVHTHCAASRHTNPSSSSPGTRT
B2: the Total fmol amounted to 1.7989 fmol. Under “PU-beads pull-down, Run1, gel size cut 80-110”, the “Matched Peptides by Fraction JA04” value was found to be 15. Besides, the MAXIMUM matched peptides (PU-beads pull-down) is 15.

B3: Serine/threonine-protein phosphatase 2A 65 kDa regulatory subunit A beta isoform (protein, UniProt P30154 2-601, looked up)
Serine/threonine-protein …: AGASELGTGPGAAGGDGDDSLYPIAVLIDELRNEDVQLRLNSIKKLSTIALALGVERTRSELLPFLTDTIYDEDEVLLALAEQLGNFTGLVGGPDFAHCLLPPLENLATVEETVVRDKAVESLRQISQEHTPVALEAYFVPLVKRLASGDWFTSRTSACGLFSVCYPRASNAVKAEIRQQFRSLCSDDTPMVRRAAASKLGEFAKVLELDSVKSEIVPLFTSLASDEQDSVRLLAVEACVSIAQLLSQDDLETLVMPTLRQAAEDKSWRVRYMVADRFSELQKAMGPKITLNDLIPAFQNLLKDCEAEVRAAAAHKVKELGENLPIEDRETIIMNQILPYIKELVSDTNQHVKSALASVIMGLSTILGKENTIEHLLPLFLAQLKDECPDVRLNIISNLDCVNEVIGIRQLSQSLLPAIVELAEDAKWRVRLAIIEYMPLLAGQLGVEFFDEKLNSLCMAWLVDHVYAIREAATNNLMKLVQKFGTEWAQNTIVPKVLVMANDPNYLHRMTTLFCINALSEACGQEITTKQMLPIVLKMAGDQVANVRFNVAKSLQKIGPILDTNALQGEVKPVLQKLGQDEDMDVKYFAQEAISVLALA
For B3, the Total fmol was found to be 5.3180 fmol. Besides, under “PU-beads pull-down”, the “Matched Peptides by Fraction JA05” value worked out at 34, the “Matched Peptides by Fraction JA12” value was determined as 37 and the MAXIMUM matched peptides is listed as 37.

B4: Proliferation-associated protein 2G4 (protein, UniProt Q9UQ80 2-394, looked up)
Proliferation-associated …: SGEDEQQEQTIAEDLVVTKYKMGGDIANRVLRSLVEASSSGVSVLSLCEKGDAMIMEETGKIFKKEKEMKKGIAFPTSISVNNCVCHFSPLKSDQDYILKEGDLVKIDLGVHVDGFIANVAHTFVVDVAQGTQVTGRKADVIKAAHLCAEAALRLVKPGNQNTQVTEAWNKVAHSFNCTPIEGMLSHQLKQHVIDGEKTIIQNPTDQQKKDHEKAEFEVHEVYAVDVLVSSGEGKAKDAGQRTTIYKRDPSKQYGLKMKTSRAFFSEVERRFDAMPFTLRAFEDEKKARMGVVECAKHELLQPFNVLYEKEGEFVAQFKFTVLLMPNGPMRITSGPFEPDLYKSEMEVQDAELKALLQSSASRKTQKKKKKKASKTAENATSGETLEENEAGD
The molecule B4 yielded a Total fmol of 28.0444 fmol. Where the note is “PU-beads pull-down”, the “Matched Peptides by Fraction JA06” value came to 18, the “Matched Peptides by Fraction JA13” value was 27 and the MAXIMUM matched peptides is reported as 27.

B5: Vascular endothelial growth factor receptor 1; VEGFR-1 (protein, UniProt P17948 27-1338, looked up)
Vascular endothelial growth …: SKLKDPELSLKGTQHIMQAGQTLHLQCRGEAAHKWSLPEMVSKESERLSITKSACGRNGKQFCSTLTLNTAQANHTGFYSCKYLAVPTSKKKETESAIYIFISDTGRPFVEMYSEIPEIIHMTEGRELVIPCRVTSPNITVTLKKFPLDTLIPDGKRIIWDSRKGFIISNATYKEIGLLTCEATVNGHLYKTNYLTHRQTNTIIDVQISTPRPVKLLRGHTLVLNCTATTPLNTRVQMTWSYPDEKNKRASVRRRIDQSNSHANIFYSVLTIDKMQNKDKGLYTCRVRSGPSFKSVNTSVHIYDKAFITVKHRKQQVLETVAGKRSYRLSMKVKAFPSPEVVWLKDGLPATEKSARYLTRGYSLIIKDVTEEDAGNYTILLSIKQSNVFKNLTATLIVNVKPQIYEKAVSSFPDPALYPLGSRQILTCTAYGIPQPTIKWFWHPCNHNHSEARCDFCSNNEESFILDADSNMGNRIESITQRMAIIEGKNKMASTLVVADSRISGIYICIASNKVGTVGRNISFYITDVPNGFHVNLEKMPTEGEDLKLSCTVNKFLYRDVTWILLRTVNNRTMHYSISKQKMAITKEHSITLNLTIMNVSLQDSGTYACRARNVYTGEEILQKKEITIRDQEAPYLLRNLSDHTVAISSSTTLDCHANGVPEPQITWFKNNHKIQQEPGIILGPGSSTLFIERVTEEDEGVYHCKATNQKGSVESSAYLTVQGTSDKSNLELITLTCTCVAATLFWLLLTLFIRKMKRSSSEIKTDYLSIIMDPDEVPLDEQCERLPYDASKWEFARERLKLGKSLGRGAFGKVVQASAFGIKKSPTCRTVAVKMLKEGATASEYKALMTELKILTHIGHHLNVVNLLGACTKQGGPLMVIVEYCKYGNLSNYLKSKRDLFFLNKDAALHMEPKKEKMEPGLEQGKKPRLDSVTSSESFASSGFQEDKSLSDVEEEEDSDGFYKEPITMEDLISYSFQVARGMEFLSSRKCIHRDLAARNILLSENNVVKICDFGLARDIYKNPDYVRKGDTRLPLKWMAPESIFDKIYSTKSDVWSYGVLLWEIFSLGGSPYPGVQMDEDFCSRLREGMRMRAPEYSTPEIYQIMLDCWHRDPKERPRFAELVEKLGDLLQANVQQDGKDYIPINAILTGNSGFTYSTPAFSEDFFKESISAPKFNSGSSDDVRYVNAFKFMSLERIKTFEELLPNATSMFDDYQGDSSTLLASPMLKRFTWTDSKPKASLKIDLRVTSKSKESGLSDVSRPSFCHSSCGHVSEGKRRFTYDHAELERKIACCSPPPDYNSVVLYSTPPI
Take B5: the Total fmol came to 2.0434 fmol. Also, where the note is “PU-beads pull-down”, the “Matched Peptides by Fraction JA06” value was 23, the “Matched Peptides by Fraction JA13” value turned out to be 14 and the MAXIMUM matched peptides turned out to be 23.

B6: Plasminogen activator inhibitor 1 RNA-binding protein; SERBP1 (protein, UniProt Q8NC51 2-408, looked up)
SERPINE1 mRNA-binding protein …: PGHLQEGFGCVVTNRFDQLFDDESDPFEVLKAAENKKKEAGGGGVGGPGAKSAAQAAAQTNSNAAGKQLRKESQKDRKNPLPPSVGVVDKKEETQPPVALKKEGIRRVGRRPDQQLQGEGKIIDRRPERRPPRERRFEKPLEEKGEGGEFSVDRPIIDRPIRGRGGLGRGRGGRGRGMGRGDGFDSRGKREFDRHSGSDRSSFSHYSGLKHEDKRGGSGSHNWGTVKDELTESPKYIQKQISYNYSDLDQSNVTEETPEGEEHHPVADTENKENEVEEVKEEGPKEMTLDEWKAIQNKDRAKVEFNIRKPNEGADGQWKKGFVLHKSKSEEAHAEDSVMDHHFRKPANDITSQLEINFGDLGRPGRGGRGGRGGRGRGGRPNRGSRTDKSSASAPDVDDPEAFPALA
As for B6, the Total fmol is given as 19.2385 fmol. Further, where the note is “PU-beads pull-down”, the “Matched Peptides by Fraction JA05” value was found to be 17, the “Matched Peptides by Fraction JA12” value was found to be 20 and the MAXIMUM matched peptides is listed as 20.

The values are drawn from US20220074941A1, “HSP90 COMBINATION THERAPY” (Sloan-Kettering Institute for Cancer Research, priority 2011, published 2022).
